Patent publication US9499529B2 (California State University Fresno, priority 2013, dated 2016)
Some results were stated once for a whole list of compounds, not compound by compound.

Assays:
[1] = tested on: MCF-10A normal mammary epithelial cells; assay: Cytotoxicity towards non-cancerous MCF-10A cells (FIG. 9); assay type: cell-based; details: at all three concentrations (1 μM, 0.1 μM, 0.01 μM)
Procedure: The MCF-10A normal mammary epithelial cells were cultured in RPMI-1640 medium supplemented with 10% FBS, 4 mM glutamine, 1 mM sodium pyruvate, 100 IU/mL penicillin, 100 ug/mL streptomycin and 0.25 ug/mL amphotericin. The MCF-10A cells were plated in 24-well plates at a density of 20,000 each well in 10% FBS RPMI-1640 or DMED medium. […] Cell numbers were counted with a cell viability analyzer (Beckman-Coulter).

[2] = tested on: PC-3 prostate cancer cells; assay: In vitro cytotoxicity against PC-3 prostate cancer cells; assay type: cell-based, human; details: PC-3 cells
Procedure: (§1) The half maximal inhibitory concentration (IC50) is a measure of the effectiveness of a substance in inhibiting a specific biological or biochemical function. It is commonly used as a measure of antagonist drug potency.
Cell cultures were maintained in 5% carbon dioxide at a temperature of 37° C. […] Cell numbers were counted with a cell viability analyzer (Beckman-Coulter). […] A preliminary dose response curve was prepared from the collected data by means well known to those of ordinary skill in the art.
(§2) The six different concentrations fell within a selected linear concentration range determined by reference to the preliminary dose response curve and efforts to estimate the concentration at which 50% of the cell growth would be inhibited. The selected six different concentrations were used to further fill out the dose response curve to pinpoint a more exact IC50 value.

[3] = tested on: HeLa cervical cancer cells; assay: In vitro cytotoxicity against HeLa cervical cancer cells; assay type: cell-based, human
Procedure: as §1
Cell numbers were counted with a cell viability analyzer (Beckman-Coulter). The ratio of drug treated viable cell numbers to vehicle treated viable cell numbers was defined as percentage viability.
A preliminary dose response curve was prepared from the collected data by means well known to those of ordinary skill in the art.
as §2

Cc1cc(/C=C/C(=O)/C=C/c2cc(C)no2)on1 [Compound 28, (1E,4E)-1,5-Bis(3-methylisoxazol-5-yl)penta-1,4-dien-3-one]
MCF-10A cell viability [1]: ≥ 80% | IC50 (curcumin)/IC50 (analog) [2]: greater than 1 | IC50 (curcumin)/IC50 (analog) [3]: greater than 13
